Laboratory results: PubChem BioAssay AID504764 (Drosophila RNAi Screening Center, 2011)

- Test: 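Genome-wide screen for regulators of Notch-driven gene expression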 (primary screen)
- Cell system: Drosophila Kc167 cells
- Reagent: long dsRNA against Drosophila genes
- Duration: about 5 days (4 days dsRNA, then 24 h after transfection)
- Conditions: transfection of constitutively active membrane-tethered Notch lacking the extracellular domain, read 24 h later
- Measurement: 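Light from a Notch-responsive E(spl)m3 luciferase reporter under active Notch, with control-promoter and no-Notch reporter wells to normalise; raw counts from paired wells a and b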
- Reading the numbers: induced reporter light, run 1, well a and induced reporter light, run 1, well b: higher = more light from the Notch target reporter with active Notch; control promoter light, run 1, well a and control promoter light, run 1, well b: higher = more light from the viral control promoter (cell number, transfection, viability); uninduced reporter light, run 1, well a: higher = more light from the Notch target reporter without active Notch
- Rule for the call: 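Wells with low control signal or poorly matching duplicates excluded; duplicates averaged; per source plate, z beyond ±2 for induced/control log2 ratio or beyond ±1.8 for induced/uninduced marks a hit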
- Calls: active = modifier hit (raised or lowered Notch signal); inactive = not a hit
In all, the deposit lists about 22,000 reagents; shown is an unselected part of those with a known target gene and a result. In the full data, 403 (1.9%) were called active. 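Unnormalised raw counts per well; ratio z-scores behind the hit calls and whether each hit raises or lowers signal are not deposited.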 Names joined by + are all predicted targets of the reagent. Reagent sequences are not shown. Not stated in the record: the amount of reagent.

gene | dsRNA | induced reporter light, run 1, well a | induced reporter light, run 1, well b | control promoter light, run 1, well a | control promoter light, run 1, well b | uninduced reporter light, run 1, well a | outcome
Ugt49B1 (GeneID 37420) | DRSC04461 | 50360 | 42385 | 42910 | 42105 | 2132 | inactive
AP-2mu (GeneID 42642) | DRSC14090 | 1.50e5 | 1.63e5 | 1.92e5 | 2.31e5 | 11880 | inactive
CG13041 (GeneID 39801) | DRSC09922 | 2.62e5 | 1.72e5 | 1.84e5 | 1.95e5 | 8160 | inactive
sr (GeneID 42162) | DRSC13284 | 76180 | 69660 | 92025 | 74025 | 9465 | inactive
sr (GeneID 42162) | DRSC17067 | 15555 | 16835 | 12540 | 13715 | 4900 | inactive
Pits (GeneID 32205) | DRSC19385 | 1.06e5 | 1.01e5 | 1.37e5 | 1.49e5 | 7350 | inactive
Pits (GeneID 32205) | DRSC19812 | 92050 | 88485 | 1.50e5 | 1.05e5 | 5855 | inactive
CG42634 + CG42635 | DRSC02450 | 1.21e5 | 1.21e5 | 1.23e5 | 1.43e5 | 9830 | inactive
Or19a (GeneID 59214) | DRSC20684 | 91790 | 83620 | 92890 | 1.00e5 | 10565 | inactive
wntD (GeneID 41633) | DRSC16423 | 2.22e5 | 2.71e5 | 2.39e5 | 2.47e5 | 16630 | inactive
ras (GeneID 43873) | DRSC18825 | 1.49e5 | 1.38e5 | 2.49e5 | 2.08e5 | 13560 | inactive
CG3649 (GeneID 37626) | DRSC04400 | 2.30e5 | 1.81e5 | 1.79e5 | 1.88e5 | 11935 | inactive
CG4880 (GeneID 32680) | DRSC19923 | 1.11e5 | 98410 | 90720 | 52560 | 9545 | inactive
CG10345 (GeneID 42017) | DRSC14138 | 1.55e5 | 1.45e5 | 1.64e5 | 1.77e5 | 12370 | inactive
DCTN5-p25 (GeneID 34873) | DRSC03525 | 90995 | 93795 | 1.23e5 | 1.45e5 | 8090 | inactive
Gpo2 (GeneID 35689) | DRSC06822 | 1.88e5 | 1.80e5 | 2.54e5 | 2.41e5 | 14575 | inactive
ssp2 (GeneID 39540) | DRSC11052 | 1.07e5 | 1.06e5 | 70415 | 79780 | 13115 | inactive
Lip4 (GeneID 34450) | DRSC02930 | 1.29e5 | 1.51e5 | 70405 | 85210 | 18950 | inactive
Arp53D (GeneID 36879) | DRSC05923 | 98530 | 78340 | 74810 | 56140 | 4270 | inactive
CG9813 (GeneID 41644) | DRSC16569 | 1.08e5 | 1.02e5 | 94715 | 80920 | 9020 | inactive
Acp53C14c (GeneID 3346203) | DRSC05626 | 98680 | 90200 | 1.16e5 | 1.21e5 | 6940 | inactive
Bruce (GeneID 41260) | DRSC16015 | 40180 | 56620 | 51485 | 45775 | 6425 | inactive
CG42597 (GeneID 8674090) | DRSC03681 | 1.11e5 | 1.24e5 | 1.16e5 | 92465 | 11575 | inactive
Ugt307A1 (GeneID 33993) | DRSC02138 | 1.66e5 | 1.30e5 | 2.11e5 | 2.50e5 | 8475 | active
Uhg2 + snoRNA:Me18S-G1620 + snoRNA:U14:30Ea | DRSC01100 | 92330 | 84040 | 1.08e5 | 1.17e5 | 5480 | inactive
CG30485 (GeneID 246644) | DRSC06376 | 86190 | 91430 | 1.19e5 | 1.19e5 | 9715 | inactive
Ugt50B3 (GeneID 246614) | DRSC04778 | 43450 | 58945 | 71280 | 68790 | 4015 | inactive
Ugt50B3 (GeneID 246614) | DRSC04779 | 72480 | 83995 | 1.19e5 | 1.17e5 | 4115 | inactive

A stretch from the list above, as a working copy:
gene | dsRNA | induced reporter light, run 1, well a | induced reporter light, run 1, well b | control promoter light, run 1, well a | control promoter light, run 1, well b | uninduced reporter light, run 1, well a | outcome
sr (GeneID 42162) | DRSC17067 | 15555 | 16835 | 12540 | 13715 | 4900 | inactive
Pits (GeneID 32205) | DRSC19385 | 1.06e5 | 1.01e5 | 1.37e5 | 1.49e5 | 7350 | inactive
Pits (GeneID 32205) | DRSC19812 | 92050 | 88485 | 1.50e5 | 1.05e5 | 5855 | inactive

The results go on:
gene | dsRNA | induced reporter light, run 1, well a | induced reporter light, run 1, well b | control promoter light, run 1, well a | control promoter light, run 1, well b | uninduced reporter light, run 1, well a | outcome
CG7290 (GeneID 40211) | DRSC10800 | 1.20e5 | 95915 | 1.11e5 | 1.29e5 | 6585 | inactive
Cpr67B (GeneID 39081) | DRSC10373 | 1.40e5 | 1.18e5 | 90585 | 54545 | 11565 | inactive
galla-2 (GeneID 39221) | DRSC10936 | 1.42e5 | 1.15e5 | 1.49e5 | 1.74e5 | 6392 | inactive
CG3184 (GeneID 31608) | DRSC18289 | 1.62e5 | 1.66e5 | 2.23e5 | 2.07e5 | 14190 | inactive
RpLP0 (GeneID 40451) | DRSC11878 | 19660 | 20560 | 37090 | 26030 | 1305 | inactive
CG6567 + CG4565 | DRSC15599 | 1.34e5 | 1.42e5 | 1.98e5 | 1.17e5 | 10610 | inactive
CG4789 (GeneID 32668) | DRSC19918 | 25385 | 26005 | 24265 | 17325 | 2820 | inactive
BoYb (GeneID 40512) | DRSC11637 | 1.20e5 | 1.14e5 | 67610 | 94700 | 8075 | inactive
Orct (GeneID 42891) | DRSC16777 | 85600 | 99095 | 85310 | 98330 | 8375 | inactive
CG14095 (GeneID 40112) | DRSC10098 | 1.09e5 | 94895 | 82530 | 77845 | 8985 | inactive
CG42544 (GeneID 8674002) | DRSC12451 | 1.68e5 | 1.44e5 | 1.22e5 | 1.03e5 | 9060 | inactive
spn-E (GeneID 41919) | DRSC17064 | 2.02e5 | 2.33e5 | 1.96e5 | 2.19e5 | 18032 | inactive
karr (GeneID 50257) | DRSC20681 | 91955 | 85940 | 99755 | 1.33e5 | 10995 | inactive
Rfk (GeneID 40936) | DRSC15454 | 1.80e5 | 1.39e5 | 1.27e5 | 98650 | 12120 | inactive
CG6621 (GeneID 41319) | DRSC16076 | 82730 | 88835 | 79865 | 80960 | 10332 | inactive
kis (GeneID 33185) | DRSC00521 | 94250 | 67270 | 64710 | 54075 | 5740 | inactive
kis (GeneID 33185) | DRSC00625 | 1.42e5 | 1.40e5 | 1.10e5 | 86635 | 9960 | inactive
kis (GeneID 33185) | DRSC00823 | 1.83e5 | 1.95e5 | 2.53e5 | 2.24e5 | 15500 | inactive
CG32073 (GeneID 326191) | DRSC09087 | 1.92e5 | 1.90e5 | 1.86e5 | 1.69e5 | 14550 | inactive
CG32073 (GeneID 326191) | DRSC09894 | 1.79e5 | 1.35e5 | 1.84e5 | 1.55e5 | 8105 | inactive
CG6324 (GeneID 32481) | DRSC19985 | 72185 | 80570 | 1.06e5 | 1.08e5 | 11870 | inactive
l(2)03659 (GeneID 47905) | DRSC07269 | 1.78e5 | 1.73e5 | 2.36e5 | 2.10e5 | 15090 | inactive
l(2)03659 (GeneID 47905) | DRSC07638 | 2.00e5 | 1.44e5 | 1.57e5 | 1.56e5 | 12300 | inactive
fdl (GeneID 250735) | DRSC07279 | 73390 | 86865 | 1.41e5 | 1.04e5 | 7840 | inactive
CG8292 (GeneID 34125) | DRSC03082 | 1.88e5 | 1.88e5 | 1.06e5 | 1.31e5 | 23585 | inactive
CG30412 (GeneID 37691) | DRSC04564 | 2.07e5 | 1.89e5 | 1.60e5 | 1.94e5 | 15440 | inactive
inaD (GeneID 37629) | DRSC04694 | 1.54e5 | 1.41e5 | 1.45e5 | 1.38e5 | 11140 | inactive
CG15021 (GeneID 38546) | DRSC08475 | 1.36e5 | 1.40e5 | 1.76e5 | 1.57e5 | 7290 | inactive
CG10254 (GeneID 42793) | DRSC14153 | 1.74e5 | 1.63e5 | 2.14e5 | 2.78e5 | 13855 | inactive
Tcs3 (GeneID 39811) | DRSC10461 | 2.02e5 | 1.90e5 | 2.28e5 | 1.61e5 | 8725 | inactive
Usp12-46 (GeneID 42702) | DRSC16175 | 1.38e5 | 1.64e5 | 1.87e5 | 1.53e5 | 12570 | inactive
ph-p (GeneID 31181) | DRSC18820 | 92225 | 1.09e5 | 1.65e5 | 2.13e5 | 7392 | inactive
CG8243 (GeneID 35890) | DRSC07122 | 1.70e5 | 1.51e5 | 2.14e5 | 2.25e5 | 15115 | inactive
Inx7 (GeneID 33027) | DRSC18784 | 1.46e5 | 1.38e5 | 2.84e5 | 2.29e5 | 9760 | inactive
CG1172 (GeneID 40647) | DRSC12182 | 1.11e5 | 1.16e5 | 91630 | 94125 | 5555 | inactive
CG5539 (GeneID 37766) | DRSC04510 | 2.45e5 | 2.07e5 | 2.30e5 | 2.26e5 | 15955 | inactive
